Some of these results come from one statement about several compounds together.
Assays:
Musca domestica = experiment: Efficacy test against Musca domestica; type: in vivo; conditions: 100 ppm on cube sugar; adult female; after 24 hours
Procedure: The insect mortality rate and the control rate were calculated by the following formula. Insect mortality rate (%)=(number of dead insects/number of sample insects)×100 Prevention rate=[1−(Nt)/(Nc)]×100
The compound of the present invention was diluted with acetone, followed by dropping to 1 g of cube sugar so that the concentration reaches to 100 ppm. The cube sugar was placed in a plastic cup and 10 adult female Musca domestica were released therein, followed by putting a lid on the cup. The cup was kept at 25° C., and life or death judgement was performed after 24 hours was passed from the releasing of Musca domestica, and the insect mortality rate was calculated by the formula. The test was repeated twice.

Pseudaletia separate = experiment: Efficacy test against Pseudaletia separate (seed treatment); type: in vivo; conditions: 0.1 g compound per 10 g wheat seeds, first-instar larvae released 7 days after seeding, counted after 3 days

Row | Compound | insect mortality rate (Musca domestica) [%] | prevention rate (Pseudaletia separate) [%]
1 | CCS(=O)(=O)c1cc(C(F)(F)F)ccc1-n1ncc(-c2ccc(OC(F)(F)F)cc2)c1C [Compound 1-19] | ≥ 80 | 
2 | CCS(=O)(=O)c1cc(C(F)(F)F)ccc1-n1ncc(-c2ccc(C(F)(F)C(F)(F)F)nc2)c1N [Compound 1-33] |  | ≥ 80
3 | CCS(=O)(=O)c1cc(C(F)(F)F)ccc1-n1ncc(-c2ccc(C(F)(F)F)nc2)c1C [Compound 1-24] | ≥ 80 | ≥ 80
4 | CCS(=O)(=O)c1cc(C(F)(F)F)ccc1-n1cc(-c2ccc(C(F)(F)F)nc2)cn1 [Compound 1-15] |  | ≥ 80

Source: patent US10548316B2, “Diarylazole compound and harmful organism control agent” (Nippon Soda Co., Ltd., priority 2015, dated 2020)
